According to article PMC10512220:

Target: T1, GUL-1-GFP (Neurospora crassa) (UniProt Q1K842)
T1 sequence: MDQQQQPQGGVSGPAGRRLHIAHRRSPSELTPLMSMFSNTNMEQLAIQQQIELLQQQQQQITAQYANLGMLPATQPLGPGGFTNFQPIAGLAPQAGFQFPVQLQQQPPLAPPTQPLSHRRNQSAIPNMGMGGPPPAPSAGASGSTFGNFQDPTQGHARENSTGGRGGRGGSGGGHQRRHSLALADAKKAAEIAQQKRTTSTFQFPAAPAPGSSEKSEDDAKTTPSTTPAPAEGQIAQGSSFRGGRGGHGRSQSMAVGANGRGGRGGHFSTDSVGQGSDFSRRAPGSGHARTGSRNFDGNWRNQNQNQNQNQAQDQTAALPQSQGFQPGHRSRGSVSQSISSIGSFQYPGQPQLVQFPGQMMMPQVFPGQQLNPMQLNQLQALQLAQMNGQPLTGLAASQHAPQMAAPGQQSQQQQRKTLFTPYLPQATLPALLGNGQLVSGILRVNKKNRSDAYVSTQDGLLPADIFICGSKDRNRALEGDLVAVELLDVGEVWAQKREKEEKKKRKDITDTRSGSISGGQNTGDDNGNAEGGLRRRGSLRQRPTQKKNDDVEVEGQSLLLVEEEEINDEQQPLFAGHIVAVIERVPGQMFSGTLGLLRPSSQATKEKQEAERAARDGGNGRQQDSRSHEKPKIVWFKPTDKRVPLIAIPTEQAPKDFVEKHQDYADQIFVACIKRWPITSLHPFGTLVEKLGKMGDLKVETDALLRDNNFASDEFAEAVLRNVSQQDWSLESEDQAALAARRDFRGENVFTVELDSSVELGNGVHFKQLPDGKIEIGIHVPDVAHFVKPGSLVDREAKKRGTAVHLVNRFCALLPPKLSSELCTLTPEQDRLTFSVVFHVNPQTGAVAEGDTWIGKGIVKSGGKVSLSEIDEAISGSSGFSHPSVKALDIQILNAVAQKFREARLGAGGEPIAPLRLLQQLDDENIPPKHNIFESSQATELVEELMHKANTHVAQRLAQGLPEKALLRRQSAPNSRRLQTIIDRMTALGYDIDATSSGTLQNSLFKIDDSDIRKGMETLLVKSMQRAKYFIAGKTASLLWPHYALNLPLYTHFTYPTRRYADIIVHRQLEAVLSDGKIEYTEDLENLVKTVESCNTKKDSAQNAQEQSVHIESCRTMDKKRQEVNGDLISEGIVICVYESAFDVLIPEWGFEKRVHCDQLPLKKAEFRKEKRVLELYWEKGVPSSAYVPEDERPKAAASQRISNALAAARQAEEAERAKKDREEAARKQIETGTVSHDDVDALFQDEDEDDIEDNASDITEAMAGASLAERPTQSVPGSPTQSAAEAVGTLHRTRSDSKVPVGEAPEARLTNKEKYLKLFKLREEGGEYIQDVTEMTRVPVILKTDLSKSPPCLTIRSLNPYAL
Test: affinity purification with mass spectrometry; GUL-1-GFP captured from cleared crude N. crassa extract on GFP-Trap magnetic agarose beads overnight at 4°C; washed with 25 mM Tris HCl pH 7.5, 150 mM NaCl, 1.5 mM MgCl2, 1% NP-40, 1 mM EDTA; LC-MS-MS, label-free quantification against a strain expressing GFP alone; three biological replicates; cultures under standard growth conditions, without NH4NO3 for the last 1 h, or with 10^-5 M Nikkomycin Z for the last 1 h

Row | Molecule | binding
1 | SNF-5 (NCU02076) | binds
2 | MAK-1 (NCU09842) (from UniProt Q7RVR1 1-413) (enzyme) | binds
3 | SCP-160 (NCU03897) (from UniProt V5IM50) | binds
4 | C2H2-type zinc-finger domain transcription factor (NCU07952) (from UniProt Q7S932) | binds
5 | PP2A [PPH-1 (NCU06630)] (from UniProt P48580 1-327) (enzyme) | binds
6 | MAK-2 (NCU02393) (from UniProt V5IKE7 1-352) (enzyme) | binds
7 | transcription elongation factor (NCU02563) (from UniProt Q7SHQ2) | binds
8 | JSN-1 (NCU06199) (from UniProt Q7SBC4) | binds
9 | glycosyl-hydrolase GH13-9 (NCU05429) (from UniProt V5IQZ6) (enzyme) | binds
10 | PUB (NCU07874) (from UniProt Q7SAS0) | binds

Target: T1, GUL-1-GFP (Neurospora crassa)
Test: as above
Remark: another data set of the same source

Row | Molecule | binding
11 | eIF3 subunit (NCU09707) (protein, UniProt Q7S2R9 1-237) MNGEDPQERPDFIRAIINGLERYNPEAAGTLEAYLTQQCEEKFCDCNANRALLKLYQLNPDRIKDEVITNILVKAMTQFPSPQFDLALHLLSPSQSNPGPNSSSELTEAVSKLRALNAQLEGAEYARFWATLDSDDLYADLTTDIAGFEDMIRVRIAQLVGQSYREIQFPVLESWLGLNNSEATTQFITETCGWKVEGDVVQIPKNADNEARKAEIREDVNVDMFARVIKRSWEESA | binds
12 | eIF3 subunit (NCU02813) (protein, UniProt Q7SEK1 1-434) MATPQLIFVDGTFAELAQEMADFVQVGEQVQPLLEQDKREDALDLIVKASHSLNAAPEKDFTPAYNLLIHLVLQSEEPKKYLPTLCANLLKPITSSPTHGFTLASNALTTIFNLLDKSNPLRFNVFMQIVRFIRQNSQFDLLKPRLKNVEGWLQEWKSDSESQRKLYVEVSDAANDGGDQEESYFYLLKALATFDRDNQDEVASDEAQKLSLRALRMAISSPTRFDFNDLRSLPSVHALSDSHPVYSQLLDIFTEQDLEDYNDFRDEHQGWIENEKLDHEKLQRKMRLLTFASLAASTPNREIPYASIAKALQIPDEDVEMWTIDVIRSKLVEGRLSQKQKVFLVHRTTYRVFGEKQWRELGTRVDQFKTVVDRLVGVVRKAQTDVEAQREREQQELERKLANAGLGESEQRGGNRGGRTGGARQTRQRTDDDD | binds
13 | VTS-1 (NCU00311) (protein, UniProt Q7RZQ3 1-620) MLNMSNIMSNRNSTPEASNVSSLRPPSSRAIGSNHGLRASADVAALTGAQAAASRIRPSSDFYGQPQSGQVQGNAELDPQDKLAQQWIADIDQYETTLEEMAAATLDQDFKDELSAIEQWFRVLSEAERTAALYALLQQTTQVQIRFFIQVLQQMGKNHPMSGVLSPANFDKDPMSSRLSDAMGKLEVGSARNSLARPSGGANKRHSGLDQTTINTMFPDAVAAIATEKAKFTQQTGNPPPSNRNSLVDNRNSLAAPTVSGPKDDINGQNPASPWGPSDTSRPKSSTGQTPMGQFVQPPPSAGGLRSPRPPQLSSNTNIQSTTLTAAEPQLTELPLLSPYTSSGNWASMVNTPMVPTFGQTQGNNADMVANATAMKLAALSTVNNRFALDDARRYRRARSNDGAPGQSHAQHPLSPGPQGIPSTNVVMINEHGQVLSHDHVLALQQQQQQGLQQGLGGFGGHRSRPTSPGIAMPNYGSALQFTSPQNNGFLSAYDGGAPGLINNGLVPMMGQFNLGGHHAEGYLSDHSEINRGRSPRGRRGSSKPPEDPTDPTLLQDIPSWLRSLRLHKYTDNLKDMKWTDLIELDDKQLEERGVNALGARRKMLKVFEQVKEAKKEGKI | binds
14 | ADV-1 (NCU07392) (protein, UniProt Q9P326 1-696) MSTQSPNHHEDITKTSSVNMTTTTTTTKTKAAAKAGTNAAPKQKTQMHRRSRTGCYTCRLRRKKCDEGSPMCTACKHLGLCCEYKRPMWWSNNDARRKQKDEIKMIIKRKKLSEKSSHTIQTSINTPPGLSHSLPTSATFSDPLDRNRSASIDSHFGFNFNSPQHGQDFAAFATPQIHVNGEYMFPPFSPYEIDMKTERQIFINDIPTLRESTVSTFSTYQTPPPPGTILPSFPLEGEWTEQVFSERRESLTEETFNANFFDFACDPAMASSQVAIELDDGDQKLLDHFVQHVLPTIFPILESNQHGSISSELVLPSLANNKGYLHCCLSIAAQHFKSTMGIQNEEIDNDIMRHRYATITWLCEALNRDENHQPILDATLGLIFFQCIVGRPEDTLPDIPWHQHFQAVVSLVQKLDLAGLVSDITKPLAHTPFNMTLTSWIDILGATMLGSSPLFAHTYRNKHLSINNHSLGLRELMGCEDRVMYLISEIACLESLKNQGMDDITLCQHVRGLGDEISNTEVNEGTLVEPYNANGTLSPKQLSKNITAAFRLAARIYLCSLVPGFYPAQPSCMGLVEKLTAVLQLIPSGVNGYDRSLTWVYLIGGSVSVPGSSFRDFFENRVAQLGDVANSGSFGRMTVLLREVWLQYEAILAAAEAAAGTSSLSSETPQQQQQVNAHYVRWREVMQIKGWDYLLI | no binding

Results are given in words; binding and its absence hold for the method and conditions named. In cells and extracts the contact can be indirect. Here binding means that the protein was enriched with, or labelled near, the bait; the list need not be complete. For some assays here: No binding means not detected with the bait. Sequences can lack the tags named with a protein.
